Reference: patent publication US8808664B2, “Lipidated glycoprotein particles and methods of use” (Ramot at Tel-Aviv University Ltd., priority 2004, dated 2014)
At least one compound was matched to its structure with a doubt left.

Assay: Efficiency of entrapment of drugs/bioactive agents in collagen disks or particles
Type: physicochemical
Conditions: Collagen particles (0.5-10 μm in diameter)
Protocol: Efficiency of entrapment of drugs/bioactive agents in the collagen disks or particles, and kinetics of drug efflux for small molecular weight drugs was determined utilizing absorption spectra (mostly in an ELISA plate reader), fluorescence emission spectra (mostly in a fluorescence plate reader), and HPLC. Half-life data was processed according to a theoretical framework previously developed for liposomes (Margalit et al., 1991), incorporated herein in its entirety) which yields the rate constant for drug efflux.

## O=C1OC2(c3ccc(O)cc3Oc3cc(O)ccc32)c2ccccc21 [Flu, fluorescein]
  % Entrapment: 95.6 ± 2.8%
